# Measurements published in the supplement of paper PMC11006884.
# Amino acid sequences for entries named in this document (tags omitted). A change or cut given only in a name is not applied to a line headed by its entry.
# UniProt O75367, whole entry, looked up: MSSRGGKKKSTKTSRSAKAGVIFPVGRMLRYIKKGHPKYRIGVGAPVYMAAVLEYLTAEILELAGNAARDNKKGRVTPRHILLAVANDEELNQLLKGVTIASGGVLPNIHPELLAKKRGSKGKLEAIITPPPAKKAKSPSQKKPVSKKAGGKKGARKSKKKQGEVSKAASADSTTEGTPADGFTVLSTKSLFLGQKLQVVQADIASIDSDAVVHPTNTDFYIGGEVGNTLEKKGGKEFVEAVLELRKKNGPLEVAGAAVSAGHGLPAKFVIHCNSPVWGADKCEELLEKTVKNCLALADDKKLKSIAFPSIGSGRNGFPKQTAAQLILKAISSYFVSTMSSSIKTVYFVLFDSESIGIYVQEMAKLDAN
# UniProt O75427: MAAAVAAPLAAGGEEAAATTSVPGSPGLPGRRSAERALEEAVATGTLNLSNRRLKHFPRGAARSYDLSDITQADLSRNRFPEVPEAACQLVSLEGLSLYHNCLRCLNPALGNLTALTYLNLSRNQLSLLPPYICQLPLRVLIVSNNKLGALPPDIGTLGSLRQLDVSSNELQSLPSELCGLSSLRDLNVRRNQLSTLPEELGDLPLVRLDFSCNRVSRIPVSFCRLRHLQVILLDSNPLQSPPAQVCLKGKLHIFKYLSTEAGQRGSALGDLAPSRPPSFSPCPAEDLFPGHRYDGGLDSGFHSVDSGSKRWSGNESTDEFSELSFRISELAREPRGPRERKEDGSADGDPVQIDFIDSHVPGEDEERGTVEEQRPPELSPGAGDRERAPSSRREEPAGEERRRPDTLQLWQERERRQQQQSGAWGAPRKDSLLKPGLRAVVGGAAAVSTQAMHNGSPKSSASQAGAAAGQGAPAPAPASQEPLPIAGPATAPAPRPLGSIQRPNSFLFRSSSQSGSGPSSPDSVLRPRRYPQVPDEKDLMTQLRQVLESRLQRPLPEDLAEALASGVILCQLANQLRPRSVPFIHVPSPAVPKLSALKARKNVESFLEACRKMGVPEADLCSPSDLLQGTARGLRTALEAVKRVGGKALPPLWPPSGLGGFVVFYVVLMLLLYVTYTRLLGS
# UniProt O75170: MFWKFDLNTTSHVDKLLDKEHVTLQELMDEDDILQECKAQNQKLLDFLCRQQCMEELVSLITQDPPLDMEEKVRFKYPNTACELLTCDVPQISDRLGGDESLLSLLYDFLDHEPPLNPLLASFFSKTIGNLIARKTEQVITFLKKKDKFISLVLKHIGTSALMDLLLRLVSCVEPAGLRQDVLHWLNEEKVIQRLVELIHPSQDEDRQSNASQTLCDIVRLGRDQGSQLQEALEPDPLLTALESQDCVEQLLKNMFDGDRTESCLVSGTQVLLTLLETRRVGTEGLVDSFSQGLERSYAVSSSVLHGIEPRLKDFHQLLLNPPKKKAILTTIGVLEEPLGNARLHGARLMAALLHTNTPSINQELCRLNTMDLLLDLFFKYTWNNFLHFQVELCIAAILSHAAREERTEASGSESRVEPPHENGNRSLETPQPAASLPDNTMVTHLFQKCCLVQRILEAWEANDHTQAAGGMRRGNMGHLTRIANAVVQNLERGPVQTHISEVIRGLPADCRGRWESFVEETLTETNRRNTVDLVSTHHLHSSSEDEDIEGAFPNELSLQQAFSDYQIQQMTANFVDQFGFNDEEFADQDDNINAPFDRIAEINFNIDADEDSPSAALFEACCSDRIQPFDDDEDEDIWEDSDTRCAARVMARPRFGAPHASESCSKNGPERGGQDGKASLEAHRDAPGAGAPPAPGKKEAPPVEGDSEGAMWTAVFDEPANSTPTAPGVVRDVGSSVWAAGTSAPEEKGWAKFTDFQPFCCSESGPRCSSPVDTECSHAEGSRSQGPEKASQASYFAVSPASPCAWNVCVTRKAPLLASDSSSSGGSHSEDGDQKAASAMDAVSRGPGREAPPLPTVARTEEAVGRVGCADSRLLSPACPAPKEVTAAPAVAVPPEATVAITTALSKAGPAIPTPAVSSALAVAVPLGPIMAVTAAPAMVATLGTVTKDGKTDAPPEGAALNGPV
# UniProt O60832: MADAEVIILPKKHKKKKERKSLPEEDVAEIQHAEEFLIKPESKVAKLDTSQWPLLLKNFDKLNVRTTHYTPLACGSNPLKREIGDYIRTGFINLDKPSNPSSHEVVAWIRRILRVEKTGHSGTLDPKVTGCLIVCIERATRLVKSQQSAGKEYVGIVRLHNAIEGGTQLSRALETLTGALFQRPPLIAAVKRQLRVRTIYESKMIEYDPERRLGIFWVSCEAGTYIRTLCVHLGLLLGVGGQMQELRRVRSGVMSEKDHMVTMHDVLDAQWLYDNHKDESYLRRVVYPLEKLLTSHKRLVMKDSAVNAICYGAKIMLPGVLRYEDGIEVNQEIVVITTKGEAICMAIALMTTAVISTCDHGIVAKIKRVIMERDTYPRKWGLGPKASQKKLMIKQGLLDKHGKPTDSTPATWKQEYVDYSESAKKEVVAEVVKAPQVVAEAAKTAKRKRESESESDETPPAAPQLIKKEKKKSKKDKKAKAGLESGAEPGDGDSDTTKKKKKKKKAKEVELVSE
# UniProt O60888: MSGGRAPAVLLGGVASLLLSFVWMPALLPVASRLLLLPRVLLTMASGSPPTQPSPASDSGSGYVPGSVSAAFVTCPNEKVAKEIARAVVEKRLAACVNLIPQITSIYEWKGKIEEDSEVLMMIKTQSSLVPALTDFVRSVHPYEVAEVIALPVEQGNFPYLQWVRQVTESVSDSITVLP
# UniProt O43395: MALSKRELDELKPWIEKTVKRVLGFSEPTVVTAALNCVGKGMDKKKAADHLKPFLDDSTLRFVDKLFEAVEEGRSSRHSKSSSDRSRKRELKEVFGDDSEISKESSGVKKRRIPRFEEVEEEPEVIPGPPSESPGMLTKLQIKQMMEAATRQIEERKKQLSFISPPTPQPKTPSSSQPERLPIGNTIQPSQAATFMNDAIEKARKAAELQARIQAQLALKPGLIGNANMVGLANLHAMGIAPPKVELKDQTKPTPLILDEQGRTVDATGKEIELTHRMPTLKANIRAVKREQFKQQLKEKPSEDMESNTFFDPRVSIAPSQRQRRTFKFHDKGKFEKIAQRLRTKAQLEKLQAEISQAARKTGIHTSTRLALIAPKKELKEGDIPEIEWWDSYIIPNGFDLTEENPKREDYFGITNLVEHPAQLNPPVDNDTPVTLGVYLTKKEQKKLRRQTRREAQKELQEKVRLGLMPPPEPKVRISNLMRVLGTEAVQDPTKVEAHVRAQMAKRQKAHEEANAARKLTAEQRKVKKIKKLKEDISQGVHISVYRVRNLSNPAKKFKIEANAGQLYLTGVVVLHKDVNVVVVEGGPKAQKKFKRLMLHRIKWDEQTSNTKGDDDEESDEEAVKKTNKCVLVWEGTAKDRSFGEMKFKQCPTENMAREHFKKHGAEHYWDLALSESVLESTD
# UniProt O43390: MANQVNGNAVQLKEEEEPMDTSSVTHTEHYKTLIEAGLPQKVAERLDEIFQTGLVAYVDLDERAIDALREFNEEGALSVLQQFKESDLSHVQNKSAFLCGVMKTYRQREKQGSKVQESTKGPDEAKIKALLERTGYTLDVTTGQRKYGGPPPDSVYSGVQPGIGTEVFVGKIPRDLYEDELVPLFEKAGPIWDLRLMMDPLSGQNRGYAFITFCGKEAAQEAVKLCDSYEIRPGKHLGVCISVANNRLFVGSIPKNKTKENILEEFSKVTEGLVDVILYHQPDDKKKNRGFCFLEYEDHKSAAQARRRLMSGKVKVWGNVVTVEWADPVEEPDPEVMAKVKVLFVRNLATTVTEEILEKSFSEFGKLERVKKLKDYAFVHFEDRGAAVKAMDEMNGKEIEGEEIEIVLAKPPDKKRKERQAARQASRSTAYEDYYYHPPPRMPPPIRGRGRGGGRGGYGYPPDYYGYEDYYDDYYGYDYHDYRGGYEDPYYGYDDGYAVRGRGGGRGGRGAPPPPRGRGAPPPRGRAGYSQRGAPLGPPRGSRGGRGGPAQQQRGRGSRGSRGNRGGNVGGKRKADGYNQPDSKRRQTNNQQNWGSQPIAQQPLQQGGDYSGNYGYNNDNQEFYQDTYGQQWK
# UniProt O75643, whole entry, looked up: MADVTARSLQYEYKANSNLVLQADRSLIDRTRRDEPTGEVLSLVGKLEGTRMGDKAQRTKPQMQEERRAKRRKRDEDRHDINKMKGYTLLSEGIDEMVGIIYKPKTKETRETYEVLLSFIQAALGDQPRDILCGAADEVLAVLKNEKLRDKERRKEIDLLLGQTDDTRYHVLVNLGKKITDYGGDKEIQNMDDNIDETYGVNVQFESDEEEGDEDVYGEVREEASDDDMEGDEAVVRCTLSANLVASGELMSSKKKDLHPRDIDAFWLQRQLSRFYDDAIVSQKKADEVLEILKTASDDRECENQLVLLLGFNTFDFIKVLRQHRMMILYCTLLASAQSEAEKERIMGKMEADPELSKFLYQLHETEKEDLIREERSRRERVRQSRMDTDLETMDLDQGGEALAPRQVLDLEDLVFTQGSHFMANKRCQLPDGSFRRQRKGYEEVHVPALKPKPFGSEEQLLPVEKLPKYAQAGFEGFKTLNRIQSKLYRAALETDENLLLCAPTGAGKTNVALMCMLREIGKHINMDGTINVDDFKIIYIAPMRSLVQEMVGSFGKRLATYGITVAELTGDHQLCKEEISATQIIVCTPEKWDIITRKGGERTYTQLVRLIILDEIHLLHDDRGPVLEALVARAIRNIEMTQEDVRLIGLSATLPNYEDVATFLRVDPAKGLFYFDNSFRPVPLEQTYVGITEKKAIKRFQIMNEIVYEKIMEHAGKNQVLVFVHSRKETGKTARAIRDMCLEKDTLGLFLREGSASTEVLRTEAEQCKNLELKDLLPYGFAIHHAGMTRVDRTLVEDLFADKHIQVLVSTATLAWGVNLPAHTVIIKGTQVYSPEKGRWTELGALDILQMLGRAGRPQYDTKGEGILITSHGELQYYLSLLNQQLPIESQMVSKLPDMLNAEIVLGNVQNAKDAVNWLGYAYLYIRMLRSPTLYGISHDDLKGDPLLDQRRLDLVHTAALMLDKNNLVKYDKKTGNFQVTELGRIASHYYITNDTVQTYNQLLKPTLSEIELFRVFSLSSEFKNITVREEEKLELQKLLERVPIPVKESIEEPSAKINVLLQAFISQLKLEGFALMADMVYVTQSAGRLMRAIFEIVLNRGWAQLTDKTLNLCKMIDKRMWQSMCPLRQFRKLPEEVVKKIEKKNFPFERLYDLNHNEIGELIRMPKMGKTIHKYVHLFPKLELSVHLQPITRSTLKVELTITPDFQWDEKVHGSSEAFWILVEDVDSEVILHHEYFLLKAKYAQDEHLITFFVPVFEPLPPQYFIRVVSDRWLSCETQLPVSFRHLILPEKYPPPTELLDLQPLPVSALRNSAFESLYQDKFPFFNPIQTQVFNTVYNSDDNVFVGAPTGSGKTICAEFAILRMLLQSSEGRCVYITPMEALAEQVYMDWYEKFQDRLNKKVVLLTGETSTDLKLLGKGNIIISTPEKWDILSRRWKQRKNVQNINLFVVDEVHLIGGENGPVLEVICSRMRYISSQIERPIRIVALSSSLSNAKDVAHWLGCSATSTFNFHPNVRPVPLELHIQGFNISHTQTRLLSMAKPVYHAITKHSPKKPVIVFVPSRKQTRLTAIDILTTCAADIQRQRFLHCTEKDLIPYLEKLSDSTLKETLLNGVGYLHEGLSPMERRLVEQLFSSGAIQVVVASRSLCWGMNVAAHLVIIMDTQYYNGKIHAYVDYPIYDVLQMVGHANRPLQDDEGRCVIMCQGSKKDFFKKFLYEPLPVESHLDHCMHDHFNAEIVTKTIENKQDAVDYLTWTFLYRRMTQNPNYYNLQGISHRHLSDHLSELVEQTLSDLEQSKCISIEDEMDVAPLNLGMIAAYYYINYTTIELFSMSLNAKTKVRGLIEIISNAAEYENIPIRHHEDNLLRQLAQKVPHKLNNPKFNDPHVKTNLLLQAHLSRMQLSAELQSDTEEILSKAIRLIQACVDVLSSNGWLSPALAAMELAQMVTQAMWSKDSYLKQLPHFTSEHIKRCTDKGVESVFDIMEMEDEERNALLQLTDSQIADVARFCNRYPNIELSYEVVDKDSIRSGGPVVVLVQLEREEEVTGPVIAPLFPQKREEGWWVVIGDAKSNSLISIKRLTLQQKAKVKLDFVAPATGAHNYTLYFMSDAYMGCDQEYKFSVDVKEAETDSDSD
# UniProt O76080: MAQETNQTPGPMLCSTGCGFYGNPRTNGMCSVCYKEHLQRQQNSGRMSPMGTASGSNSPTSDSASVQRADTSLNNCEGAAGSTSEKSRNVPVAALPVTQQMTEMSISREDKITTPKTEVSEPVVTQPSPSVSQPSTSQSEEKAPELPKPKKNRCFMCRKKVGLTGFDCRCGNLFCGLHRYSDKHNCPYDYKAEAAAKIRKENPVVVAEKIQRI
# The list shows a part of the results, in another mix than the full data. This is a noisy data set.
# Compound: COC(=O)/C=C/c1ccccc1 [methyl cinnamate]
# Assay: log2 ratio of iodoacetamide-alkyne labeling of the cysteine site, DMSO over compound (competition); higher = stronger covalent engagement of the cysteine by the compound, active = 1 or more
# Conditions: 500 µM; treatment time 1 h; system: HEK293T cell lysate
# Method in brief: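 Three replicates, each with duplicate channels, were prepared from HEK293T lysate (2 mg/mL) treated with vehicle or electrophile at 500 µM for 1 h at ambient temperature. Iodoacetamide alkyne was then applied for 1 h, and samples were clicked to sCIP-TMT reagents, pooled, trypsin-digested overnight at 37 °C, enriched on streptavidin, acid-eluted and analysed on Orbitrap Eclipse LC-MS/MS with FAIMS, with FragPipe quantification. The log2 competition ratio per cysteine is the mean control-channel divided by the mean compound-channel reporter intensity. Cysteines quantified in only one replicate were left out.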
row,Target,log2 ratio of iodoacetamide-alkyne labeling
1,H2AFY C297 (UniProt O75367),inactive: -0.0893
2,LRCH4 C571 (UniProt O75427),inactive: -0.308
3,CBR3 C143 (UniProt O75828),inactive: -0.0682
4,NUP155 C917 (UniProt O75694),inactive: 0.229
5,SF3B1 C677 (UniProt O75533),inactive: -0.125
6,UniProt O75170_C762,inactive: -0.115
7,UniProt O43303_C535,inactive: 0.165
8,DKC1 C74 (UniProt O60832),inactive: 0.0913
9,CUTA C96 (UniProt O60888),inactive: -0.0692
10,SYNCRIP C289 (UniProt O60506),inactive: 0.0303
11,PRPF3 C37 (UniProt O43395),inactive: 0.0709
12,HNRNPR C240 (UniProt O43390),inactive: 0.0339
13,GPC4 C408 (UniProt O75487),inactive: 0.208
14,SNRNP200 C742 (UniProt O75643),inactive: 0.0125
15,ZFAND5 C76 (UniProt O76080),inactive: 0.279

# Part of the list above, with bars between the fields.
row | Target | log2 ratio of iodoacetamide-alkyne labeling
4 | NUP155 C917 (UniProt O75694) | inactive: 0.229
5 | SF3B1 C677 (UniProt O75533) | inactive: -0.125
